Results are given in words; binding and its absence hold for the method and conditions named. Binding seen in cells or lysates may run through a third protein. A yes stands for co-enrichment or nearness to the bait. Other partners may have been found. For some of these results: A no says only that the protein was not detected with the bait. Blank lines part the entries; values can stand above or below the molecule they belong to.
What was measured:
[1] = biological target: T1, NEK1 (endogenous) (human (endogenous in ARPE-19, HeLa, HEK293, U2-O-S)) (UniProt Q96PY6); assay: affinity purification with mass spectrometry; immunoprecipitation of endogenous NEK1 or C21ORF2 from ARPE-19 parental lysates (5 mg), the respective KO cells as control; washes with PBS, 0.5% NP-40; TMT-labelled quantitative LC-MS/MS, five replicates
T1 sequence: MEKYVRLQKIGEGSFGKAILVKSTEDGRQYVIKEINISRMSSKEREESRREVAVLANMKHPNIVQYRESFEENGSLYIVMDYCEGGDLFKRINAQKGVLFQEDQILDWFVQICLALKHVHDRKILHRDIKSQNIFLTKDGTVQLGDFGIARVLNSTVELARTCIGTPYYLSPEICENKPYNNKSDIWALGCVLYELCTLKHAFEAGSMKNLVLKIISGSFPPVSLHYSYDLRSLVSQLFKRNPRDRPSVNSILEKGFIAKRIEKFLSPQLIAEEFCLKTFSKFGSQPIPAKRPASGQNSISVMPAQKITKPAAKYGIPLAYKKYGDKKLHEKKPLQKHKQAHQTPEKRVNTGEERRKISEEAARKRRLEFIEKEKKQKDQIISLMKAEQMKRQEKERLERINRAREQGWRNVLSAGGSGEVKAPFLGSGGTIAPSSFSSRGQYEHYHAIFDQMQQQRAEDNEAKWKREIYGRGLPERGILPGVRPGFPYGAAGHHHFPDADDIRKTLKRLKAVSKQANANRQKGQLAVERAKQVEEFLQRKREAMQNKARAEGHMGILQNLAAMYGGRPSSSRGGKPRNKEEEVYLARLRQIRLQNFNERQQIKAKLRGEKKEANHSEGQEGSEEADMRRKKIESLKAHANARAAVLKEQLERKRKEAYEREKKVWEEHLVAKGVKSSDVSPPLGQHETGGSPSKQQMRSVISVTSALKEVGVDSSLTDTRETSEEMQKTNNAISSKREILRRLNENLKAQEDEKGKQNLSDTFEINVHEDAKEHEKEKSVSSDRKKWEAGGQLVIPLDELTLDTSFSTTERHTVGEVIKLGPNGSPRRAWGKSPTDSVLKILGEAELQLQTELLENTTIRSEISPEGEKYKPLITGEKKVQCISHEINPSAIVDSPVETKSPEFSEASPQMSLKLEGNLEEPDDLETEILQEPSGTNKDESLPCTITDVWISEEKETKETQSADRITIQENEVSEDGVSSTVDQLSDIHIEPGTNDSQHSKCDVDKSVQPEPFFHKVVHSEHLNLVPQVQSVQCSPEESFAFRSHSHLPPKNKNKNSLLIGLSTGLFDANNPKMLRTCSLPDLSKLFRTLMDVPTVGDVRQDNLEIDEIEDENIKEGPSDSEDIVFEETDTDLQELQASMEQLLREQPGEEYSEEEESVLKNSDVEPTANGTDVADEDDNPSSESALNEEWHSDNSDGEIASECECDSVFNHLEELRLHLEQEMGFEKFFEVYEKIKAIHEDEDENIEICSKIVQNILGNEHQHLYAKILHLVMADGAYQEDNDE

[2] = biological target: T2, C21ORF2 (endogenous) (human (endogenous in ARPE-19, HeLa, HEK293, U2-O-S)) (UniProt O43822); assay: as above
T2 sequence: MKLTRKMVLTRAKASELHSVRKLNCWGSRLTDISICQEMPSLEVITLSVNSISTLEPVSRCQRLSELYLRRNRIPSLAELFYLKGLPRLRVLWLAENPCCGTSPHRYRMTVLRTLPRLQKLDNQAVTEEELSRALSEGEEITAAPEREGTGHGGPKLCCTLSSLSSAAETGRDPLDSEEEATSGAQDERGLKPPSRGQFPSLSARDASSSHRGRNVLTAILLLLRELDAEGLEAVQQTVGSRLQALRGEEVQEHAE

binding [1]: no binding
Molecule: C19ORF53 (from UniProt Q9UNZ5 1-99)

binding [1]: no binding
Molecule: COL8A1 (from UniProt P27658 28-744)

binding [1]: binds
B1: C21ORF2 (endogenous) (protein, UniProt O43822-1 1-256)
chain: T2 sequence

binding [2]: binds
B2: NEK1 (endogenous) (protein, UniProt Q96PY6-3 1-1286)
chain: T1 sequence

— paper PMC10185812
